These are yes or no findings as the source states them, for the method shown. A result given as binding can be weak or reduced; the word gives no strength. Where a sequence is shown, tags or fusion partners need not be part of it.

In assay [1] the target is T1, MBP-SHLD2(1–60) (human) (UniProt Q86V20).
T1 sequence: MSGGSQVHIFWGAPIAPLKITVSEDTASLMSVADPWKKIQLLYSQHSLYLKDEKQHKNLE
Nature of the assay: SEC; Superdex 200 Increase 10/300 GL, 20 mM Tris/HCl pH 8.0, 150 mM NaCl, 1% glycerol, 1 mM TCEP; proteins mixed and incubated 10 min on ice; 0.5 ml fractions on SDS-PAGE, Coomassie; both purified. In general terms: Size exclusion chromatography separates by hydrodynamic size, large species first.

Assay [2] has as its target T1, MBP-SHLD2(1–60) (human). Nature of the assay: pull-down; 30 μg MBP-SHLD2(1-60) on dextrin beads, 20 μg REV7-SHLD3(1-82) with or without 20 μg REV7 added for 30 min; washed with 20 mM Tris pH 8.0, 500 mM NaCl, 1% glycerol, 0.5 mM TCEP, 0.5% NP-40; SDS-PAGE, Coomassie; both purified.

“REV7^K129A-SHLD3(1–82)-REV7^K129A (human) (complex)”: in the assay with MBP-SHLD2(1–60) (human) [1], the binding result is “binds”.

On to “REV7^W171A-SHLD3(1–82) (human) (complex)”, for which the binding entry with MBP-SHLD2(1–60) (human) [1] was “binds”.

Take REV7^WT-SHLD3(1–82) (human) (complex): the binding entry in the assay with MBP-SHLD2(1–60) (human) [1] and in the assay with MBP-SHLD2(1–60) (human) [2] was “binds” each time.

For the substance REV7^Y63A-SHLD3(1–82) (human) (complex), the binding result with MBP-SHLD2(1–60) (human) [1] is given as “binds”.

For the origin of these results see publication PMC7181697.
